The source of these data is publication doi:10.1101/2023.06.26.546597 (bioRxiv, 2023).

Common to all, as to test: two-hybrid
Test [1] has as its target T1, Mbl, bacterial two-hybrid fusion (B. subtilis) (UniProt P39751).
T1 sequence: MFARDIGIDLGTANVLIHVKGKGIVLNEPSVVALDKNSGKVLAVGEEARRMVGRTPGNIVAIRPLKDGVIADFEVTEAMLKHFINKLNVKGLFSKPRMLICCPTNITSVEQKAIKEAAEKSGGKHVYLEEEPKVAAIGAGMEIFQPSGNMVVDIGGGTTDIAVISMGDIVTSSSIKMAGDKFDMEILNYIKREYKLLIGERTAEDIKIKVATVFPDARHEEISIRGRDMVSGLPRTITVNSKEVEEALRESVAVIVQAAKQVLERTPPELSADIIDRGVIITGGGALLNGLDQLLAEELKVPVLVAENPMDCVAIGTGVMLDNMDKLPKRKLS

Test [2] concerns the target T2, FtsE, bacterial two-hybrid fusion (B. subtilis) (UniProt O34814).
T2 sequence: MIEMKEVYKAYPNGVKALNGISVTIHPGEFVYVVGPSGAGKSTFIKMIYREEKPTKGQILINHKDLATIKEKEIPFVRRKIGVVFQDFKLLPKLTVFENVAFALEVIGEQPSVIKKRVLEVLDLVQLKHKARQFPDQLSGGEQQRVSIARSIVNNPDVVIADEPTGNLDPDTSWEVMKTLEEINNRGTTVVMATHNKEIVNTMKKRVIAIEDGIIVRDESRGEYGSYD

Test [3] deals with YisK (BSU10750), bacterial two-hybrid fusion (B. subtilis 168) (UniProt O06724).
Test [4] has as its target YisK E30A, bacterial two-hybrid fusion (B. subtilis 168) (UniProt O06724).

Residue numbers refer to the chain shown, from its start. Numbers in names are those of the source. No constants are given. Whether binding was seen depends on the method and setting. Some entries that bind do so weakly or less than the wild type. Where a sequence is shown, tags or fusion partners need not be part of it.

B1: YisK (BSU10750), bacterial two-hybrid fusion (enzyme, UniProt O06724 1-301)
chain: MKFATGELYNRMFVGLIIDDEKIMDLQKAEKKLFELETIPGSLIECIAEGDKFVAHARQLAEWAKKPNDELGSFMYSLSEVKLHAPIPKPSKNIICIGKNYRDHAIEMGSEADIPEHPMVFTKSPVTVTGHGDIVKSHEEVTSQLDYEGELAVVIGKSGTRISKEDAYDHVFGYTIVNDITARDLQKRHKQFFIGKSLDTTCPMGPVLVHKSSIQEPERLKVETRVNGELRQSGSASDMIFSIPELIETLSKGMTLEAGDIIATGTPSGVGKGFTPPKFLRSGDKIDITIDPIGTLSNQIG
For the molecule B1, the binding result in test [1] is given as “no binding”; in test [2] it was “binds”; in test [3], “binds”.

B2: YisK E30A, bacterial two-hybrid fusion (enzyme, UniProt O06724 1-301)
chain: B1 chain with E30A
Take B2: the binding result in test [4] is on record as “binds”.
